Results are given in words; binding and its absence hold for the method and conditions named. Binding can be weak; no strength is given. Where a sequence is shown, tags or fusion partners need not be part of it.
Target: taxol-stabilized microtubules (purified bovine brain tubulin) (bovine)
Test: co-sedimentation; 500 nM purified protein with 3 μm taxol-stabilized microtubules, 30 min at room temperature; 60% glycerol BRB80 cushion, 50,000 rpm 30 min; supernatant and pellet on SDS-PAGE, Coomassie; both purified

binding: binds
B1: His-MBP-CCDC66 (570–948) (domain or fragment, UniProt A2RUB6 570-948)
chain: GVDTIQMEYNASNISNSRHDSDEISGKMNTYMNSTTSKKDTGVQTDDLNIGIFTNAESHCGSLMERDITNCSSPEISAELIGQFSTKKNKQELTQDKGASLEKENNRCNDQCNQFTRIEKQTKHMKKYPKRPDWNINKPPKRYIPASEKYPKQLQKQREEKKVRRQMELLHLVEKNNPGHLSQNRGISPEIFHSSHQETESKLRWHLVKKEEEPLNIHSFSKERSPSSPVPVVKNRTQQTQNTLHLPLKNSSYERENLISGSNQTELSSGISESSHFIPYVRTNEIYYLDPDAPLSGPSTQDPQYQNSQDCGQKRQLFDSDCVRDPLLNPNMVKNRDRQQAILKGLSELRQGLLQKQKELESSLLPLAENQEESFGSSF

Source: PMC9333452
